The source of these data is publication PMC3936282.

Assay [1] has as its target T1, C. reinhardtii IFT74 (C. reinhardtii (endogenous in flagella)) (UniProt Q6RCE1).
T1 sequence: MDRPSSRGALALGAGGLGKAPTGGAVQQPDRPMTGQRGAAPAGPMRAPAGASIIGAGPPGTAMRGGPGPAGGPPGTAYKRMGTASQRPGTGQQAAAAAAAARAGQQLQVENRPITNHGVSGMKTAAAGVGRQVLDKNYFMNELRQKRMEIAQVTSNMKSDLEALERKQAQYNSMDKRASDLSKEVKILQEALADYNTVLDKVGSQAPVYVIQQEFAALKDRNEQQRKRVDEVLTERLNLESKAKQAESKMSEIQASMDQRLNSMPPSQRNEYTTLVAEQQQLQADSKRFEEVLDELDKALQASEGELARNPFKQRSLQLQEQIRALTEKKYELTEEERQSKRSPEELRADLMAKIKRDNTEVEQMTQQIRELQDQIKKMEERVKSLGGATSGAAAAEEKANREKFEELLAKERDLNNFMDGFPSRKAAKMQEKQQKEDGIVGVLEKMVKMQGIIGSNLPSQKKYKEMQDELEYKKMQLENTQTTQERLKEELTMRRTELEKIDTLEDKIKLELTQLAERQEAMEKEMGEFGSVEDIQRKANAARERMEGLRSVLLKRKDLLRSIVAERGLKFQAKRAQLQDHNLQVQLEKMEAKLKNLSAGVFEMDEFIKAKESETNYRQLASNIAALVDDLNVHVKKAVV
As to the kind of experiment: co-sedimentation; flagellar matrix of wild-type C. reinhardtii fractionated through a 10–25% sucrose density gradient; fractions on 10% SDS-PAGE, Western blotting. On the technique in general: A western blot detects proteins with antibodies after separation by electrophoresis.

In assay [2] the target is T2, C. reinhardtii IFT46 (C. reinhardtii (endogenous in flagella)) (UniProt A2T2X4).
T2 sequence: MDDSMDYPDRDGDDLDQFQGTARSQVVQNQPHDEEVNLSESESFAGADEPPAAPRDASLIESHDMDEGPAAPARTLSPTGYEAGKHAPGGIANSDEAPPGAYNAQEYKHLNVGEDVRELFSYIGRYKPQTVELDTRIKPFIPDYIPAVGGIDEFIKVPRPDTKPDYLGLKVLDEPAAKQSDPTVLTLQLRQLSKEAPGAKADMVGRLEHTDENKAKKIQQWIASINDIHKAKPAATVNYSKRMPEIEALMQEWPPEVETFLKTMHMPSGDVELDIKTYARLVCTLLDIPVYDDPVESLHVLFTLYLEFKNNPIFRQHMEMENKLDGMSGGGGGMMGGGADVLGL
The description is as above.

These are yes or no findings as the source states them, for the method shown. Binding seen in cells or lysates may run through a third protein. Some entries that bind do so weakly or less than the wild type. Tags and fused reporters may be left off the sequences shown.

B1: C. reinhardtii DYF13 (protein, UniProt A8JA42 1-555)
chain: MFYSKSRPQHAARTNVAQAAANEKPKVPELEEFLTKRDYLGAIALLSFRRHANRNDLKNLEWLAYCYFHYGEHDKALVIYKELLQHEDPDPMFFVYSAACLYYMGMYKEAEEQALQGPKCALQTRILFHSAQRQGNDDKLMAYHGQLTDSIEDQLTLASIHYQRSHFQEATDIYKRLLLEHRDYLRSTVVYVALCYCKLDYYDVSLEILGVYLSAFPDSAIAVNLKACNHFRMYNGKAAEAELKTLAELSGGQHLDHDLIRHNLVVFRGGENALQVLPPLSDIPPEARLNLVIHHLRHHEVGEAFGLIKDMEPSTPPEFILKAVVHAMLGQVKGDPEHLKKAQQYYQLVGASASECDTIPGRQCMASCFFLLKQFEDVLVFLSSIKTYFLNDDDFNWNLGIAKAATGKYKEAEETLLQIANDKYRNEYTYTSWLARCYIMNGKARLAWERYLQLETNDESYQLLLLIANDCYKMGAFYFACKAFDVLERLDPAPEYLEGKKGAACGAFQMIVAGKEPKDLLRDVISLLRGNNSADQCEPIVAVMRKWAKNNGVKL
Take B1: the binding result in assay [1] and in assay [2] was “binds” throughout.
